Measured values as given in the supplement of paper PMC12067093, “Discovery and optimisation of a covalent ligand for TRIM25 and its application to targeted protein ubiquitination” (Chemical Science, 2025).
The list shows a part of the results.

Sequences of proteins named here, by UniProt entry; tags and fusion partners are left off. A change or cut given only in a name is not applied to a line headed by its entry.
UniProt Q9Y520: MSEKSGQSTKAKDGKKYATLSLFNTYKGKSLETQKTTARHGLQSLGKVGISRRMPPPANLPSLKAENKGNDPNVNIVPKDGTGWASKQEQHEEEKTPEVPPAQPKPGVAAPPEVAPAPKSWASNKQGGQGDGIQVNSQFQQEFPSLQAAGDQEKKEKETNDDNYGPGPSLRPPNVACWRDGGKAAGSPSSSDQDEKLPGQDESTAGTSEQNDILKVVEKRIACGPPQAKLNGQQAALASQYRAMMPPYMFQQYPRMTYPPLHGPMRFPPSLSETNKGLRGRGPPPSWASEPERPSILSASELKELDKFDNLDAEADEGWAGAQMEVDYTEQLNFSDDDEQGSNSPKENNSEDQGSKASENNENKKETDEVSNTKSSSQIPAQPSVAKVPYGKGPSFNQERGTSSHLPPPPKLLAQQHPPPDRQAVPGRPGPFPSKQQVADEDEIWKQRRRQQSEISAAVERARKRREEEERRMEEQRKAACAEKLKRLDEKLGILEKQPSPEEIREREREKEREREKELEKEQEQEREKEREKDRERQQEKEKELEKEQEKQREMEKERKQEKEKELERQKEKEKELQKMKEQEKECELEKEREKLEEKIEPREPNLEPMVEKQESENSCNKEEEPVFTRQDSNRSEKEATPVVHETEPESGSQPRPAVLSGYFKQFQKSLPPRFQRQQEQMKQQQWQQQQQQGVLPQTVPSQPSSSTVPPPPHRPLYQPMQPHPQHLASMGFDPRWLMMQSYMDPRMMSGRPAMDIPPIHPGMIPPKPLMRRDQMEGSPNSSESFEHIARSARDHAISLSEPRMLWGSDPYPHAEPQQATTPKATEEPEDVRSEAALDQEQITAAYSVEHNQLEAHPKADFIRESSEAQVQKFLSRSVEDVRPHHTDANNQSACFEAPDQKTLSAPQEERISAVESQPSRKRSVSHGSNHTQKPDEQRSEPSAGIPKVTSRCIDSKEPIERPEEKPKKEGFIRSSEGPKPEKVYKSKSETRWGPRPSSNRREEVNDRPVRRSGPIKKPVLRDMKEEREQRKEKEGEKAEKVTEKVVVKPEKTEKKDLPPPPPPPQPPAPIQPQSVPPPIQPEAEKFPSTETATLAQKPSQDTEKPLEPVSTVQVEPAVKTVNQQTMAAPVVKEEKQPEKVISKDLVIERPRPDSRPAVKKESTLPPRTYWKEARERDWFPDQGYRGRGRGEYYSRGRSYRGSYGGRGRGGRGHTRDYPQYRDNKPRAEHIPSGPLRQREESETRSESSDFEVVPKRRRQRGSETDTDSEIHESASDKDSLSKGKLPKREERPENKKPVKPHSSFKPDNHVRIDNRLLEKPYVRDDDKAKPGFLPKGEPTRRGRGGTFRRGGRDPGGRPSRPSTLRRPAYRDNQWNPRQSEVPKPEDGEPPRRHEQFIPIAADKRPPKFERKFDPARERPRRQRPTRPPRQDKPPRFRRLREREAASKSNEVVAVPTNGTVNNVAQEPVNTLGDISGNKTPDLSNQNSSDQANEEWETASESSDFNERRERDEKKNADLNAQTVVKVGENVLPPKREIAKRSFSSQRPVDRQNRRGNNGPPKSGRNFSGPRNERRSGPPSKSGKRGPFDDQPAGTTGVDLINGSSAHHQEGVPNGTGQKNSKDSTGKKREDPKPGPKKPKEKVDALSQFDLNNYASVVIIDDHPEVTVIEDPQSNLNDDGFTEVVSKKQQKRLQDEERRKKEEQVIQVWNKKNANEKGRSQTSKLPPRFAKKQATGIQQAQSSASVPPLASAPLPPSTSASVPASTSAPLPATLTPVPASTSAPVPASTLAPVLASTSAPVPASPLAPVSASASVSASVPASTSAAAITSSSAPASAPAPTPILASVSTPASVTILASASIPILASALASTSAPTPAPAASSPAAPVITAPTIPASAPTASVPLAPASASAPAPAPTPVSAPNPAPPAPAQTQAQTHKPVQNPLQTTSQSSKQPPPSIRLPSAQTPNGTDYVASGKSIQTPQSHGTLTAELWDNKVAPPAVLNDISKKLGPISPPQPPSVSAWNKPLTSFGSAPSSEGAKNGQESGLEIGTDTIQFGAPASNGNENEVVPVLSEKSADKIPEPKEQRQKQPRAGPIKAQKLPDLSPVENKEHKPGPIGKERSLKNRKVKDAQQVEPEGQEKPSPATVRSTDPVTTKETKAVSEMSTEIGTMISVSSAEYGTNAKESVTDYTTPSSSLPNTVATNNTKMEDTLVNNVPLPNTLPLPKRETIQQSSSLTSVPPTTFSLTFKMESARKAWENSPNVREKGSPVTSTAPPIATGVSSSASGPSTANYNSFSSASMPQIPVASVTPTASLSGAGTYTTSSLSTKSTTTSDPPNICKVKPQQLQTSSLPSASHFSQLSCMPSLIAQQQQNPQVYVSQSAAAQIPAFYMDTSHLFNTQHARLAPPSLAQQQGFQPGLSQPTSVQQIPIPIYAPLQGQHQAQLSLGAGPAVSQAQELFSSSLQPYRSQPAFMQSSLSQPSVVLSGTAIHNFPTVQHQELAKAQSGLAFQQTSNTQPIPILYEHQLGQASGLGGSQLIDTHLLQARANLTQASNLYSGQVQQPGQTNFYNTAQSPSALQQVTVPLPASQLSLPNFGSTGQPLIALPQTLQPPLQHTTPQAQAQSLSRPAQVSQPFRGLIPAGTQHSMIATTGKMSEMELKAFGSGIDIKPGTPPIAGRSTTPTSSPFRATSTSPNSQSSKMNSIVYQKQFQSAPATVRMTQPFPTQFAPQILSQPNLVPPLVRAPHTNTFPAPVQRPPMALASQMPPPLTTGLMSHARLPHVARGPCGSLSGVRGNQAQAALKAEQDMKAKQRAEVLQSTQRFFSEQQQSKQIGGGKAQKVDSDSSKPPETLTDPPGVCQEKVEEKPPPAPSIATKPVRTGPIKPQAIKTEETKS
UniProt O94906: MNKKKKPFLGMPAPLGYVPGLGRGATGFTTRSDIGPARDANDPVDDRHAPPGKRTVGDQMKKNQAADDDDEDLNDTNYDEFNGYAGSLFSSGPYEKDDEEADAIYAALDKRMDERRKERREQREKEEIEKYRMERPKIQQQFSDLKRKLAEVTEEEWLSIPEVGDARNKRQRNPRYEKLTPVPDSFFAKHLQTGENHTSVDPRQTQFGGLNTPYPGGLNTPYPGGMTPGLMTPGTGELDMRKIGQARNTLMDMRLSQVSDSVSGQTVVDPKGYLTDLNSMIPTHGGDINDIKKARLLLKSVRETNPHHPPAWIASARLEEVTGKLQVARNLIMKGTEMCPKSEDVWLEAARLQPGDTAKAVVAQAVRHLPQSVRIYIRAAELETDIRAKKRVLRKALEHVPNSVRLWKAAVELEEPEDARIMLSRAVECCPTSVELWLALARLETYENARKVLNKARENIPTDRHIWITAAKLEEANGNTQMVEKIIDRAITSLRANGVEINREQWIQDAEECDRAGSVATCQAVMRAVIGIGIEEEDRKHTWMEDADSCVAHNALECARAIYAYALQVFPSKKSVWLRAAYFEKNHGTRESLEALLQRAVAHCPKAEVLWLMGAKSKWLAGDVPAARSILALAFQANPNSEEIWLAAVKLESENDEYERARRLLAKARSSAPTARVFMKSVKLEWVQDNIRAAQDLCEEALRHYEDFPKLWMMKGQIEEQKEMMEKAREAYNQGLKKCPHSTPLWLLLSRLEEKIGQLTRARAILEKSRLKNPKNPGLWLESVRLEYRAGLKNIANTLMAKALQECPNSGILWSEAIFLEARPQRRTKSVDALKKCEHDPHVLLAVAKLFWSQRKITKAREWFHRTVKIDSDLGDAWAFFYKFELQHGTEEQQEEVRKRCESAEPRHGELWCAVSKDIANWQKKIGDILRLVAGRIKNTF
UniProt Q13131: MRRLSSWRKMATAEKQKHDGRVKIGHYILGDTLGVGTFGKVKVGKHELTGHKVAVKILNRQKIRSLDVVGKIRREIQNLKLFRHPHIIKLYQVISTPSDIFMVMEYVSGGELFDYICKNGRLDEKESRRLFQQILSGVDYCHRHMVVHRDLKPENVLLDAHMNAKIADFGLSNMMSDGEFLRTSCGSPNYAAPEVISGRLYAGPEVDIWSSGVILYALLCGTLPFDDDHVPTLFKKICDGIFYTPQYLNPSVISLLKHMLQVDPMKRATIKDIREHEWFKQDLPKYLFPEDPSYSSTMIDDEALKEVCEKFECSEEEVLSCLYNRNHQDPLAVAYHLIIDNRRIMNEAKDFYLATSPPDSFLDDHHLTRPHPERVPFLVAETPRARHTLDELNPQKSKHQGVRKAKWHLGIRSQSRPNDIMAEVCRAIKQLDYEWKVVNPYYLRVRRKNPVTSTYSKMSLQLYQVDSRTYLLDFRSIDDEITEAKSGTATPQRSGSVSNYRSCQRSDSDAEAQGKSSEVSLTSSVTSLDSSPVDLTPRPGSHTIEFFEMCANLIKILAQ
UniProt Q05655: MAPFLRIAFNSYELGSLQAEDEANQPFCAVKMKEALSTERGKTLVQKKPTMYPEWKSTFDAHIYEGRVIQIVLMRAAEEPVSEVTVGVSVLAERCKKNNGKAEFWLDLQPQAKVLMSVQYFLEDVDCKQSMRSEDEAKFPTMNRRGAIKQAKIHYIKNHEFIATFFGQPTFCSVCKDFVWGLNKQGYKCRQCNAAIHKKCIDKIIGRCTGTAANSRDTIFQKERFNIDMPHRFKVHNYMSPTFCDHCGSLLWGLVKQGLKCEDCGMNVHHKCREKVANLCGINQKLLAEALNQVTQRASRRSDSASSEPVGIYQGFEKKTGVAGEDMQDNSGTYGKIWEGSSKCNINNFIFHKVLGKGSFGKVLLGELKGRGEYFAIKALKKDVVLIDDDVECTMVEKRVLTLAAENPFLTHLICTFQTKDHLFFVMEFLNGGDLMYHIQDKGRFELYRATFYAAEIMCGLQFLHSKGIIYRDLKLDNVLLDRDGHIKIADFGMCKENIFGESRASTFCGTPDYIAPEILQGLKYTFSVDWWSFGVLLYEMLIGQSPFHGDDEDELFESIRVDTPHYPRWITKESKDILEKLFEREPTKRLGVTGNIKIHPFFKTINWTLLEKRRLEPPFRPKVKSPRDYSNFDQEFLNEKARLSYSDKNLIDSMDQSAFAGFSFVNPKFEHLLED
UniProt O14744, whole entry, looked up: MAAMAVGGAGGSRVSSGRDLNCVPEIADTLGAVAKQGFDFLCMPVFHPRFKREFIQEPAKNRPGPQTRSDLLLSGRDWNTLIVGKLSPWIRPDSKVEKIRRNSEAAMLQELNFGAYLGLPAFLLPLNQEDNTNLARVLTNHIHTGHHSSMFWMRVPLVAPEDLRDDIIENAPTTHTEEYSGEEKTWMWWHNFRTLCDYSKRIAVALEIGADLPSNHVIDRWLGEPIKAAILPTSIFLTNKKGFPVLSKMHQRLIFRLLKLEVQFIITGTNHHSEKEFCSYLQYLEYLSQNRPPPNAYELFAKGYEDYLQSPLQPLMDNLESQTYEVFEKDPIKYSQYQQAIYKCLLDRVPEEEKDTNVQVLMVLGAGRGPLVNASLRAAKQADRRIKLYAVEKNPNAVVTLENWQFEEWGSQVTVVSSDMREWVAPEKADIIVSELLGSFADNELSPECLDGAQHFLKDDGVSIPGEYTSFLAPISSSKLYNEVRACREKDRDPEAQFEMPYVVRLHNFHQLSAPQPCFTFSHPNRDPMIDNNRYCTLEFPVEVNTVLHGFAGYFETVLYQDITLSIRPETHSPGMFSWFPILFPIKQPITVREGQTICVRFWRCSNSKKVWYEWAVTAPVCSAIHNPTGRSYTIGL
UniProt Q04759: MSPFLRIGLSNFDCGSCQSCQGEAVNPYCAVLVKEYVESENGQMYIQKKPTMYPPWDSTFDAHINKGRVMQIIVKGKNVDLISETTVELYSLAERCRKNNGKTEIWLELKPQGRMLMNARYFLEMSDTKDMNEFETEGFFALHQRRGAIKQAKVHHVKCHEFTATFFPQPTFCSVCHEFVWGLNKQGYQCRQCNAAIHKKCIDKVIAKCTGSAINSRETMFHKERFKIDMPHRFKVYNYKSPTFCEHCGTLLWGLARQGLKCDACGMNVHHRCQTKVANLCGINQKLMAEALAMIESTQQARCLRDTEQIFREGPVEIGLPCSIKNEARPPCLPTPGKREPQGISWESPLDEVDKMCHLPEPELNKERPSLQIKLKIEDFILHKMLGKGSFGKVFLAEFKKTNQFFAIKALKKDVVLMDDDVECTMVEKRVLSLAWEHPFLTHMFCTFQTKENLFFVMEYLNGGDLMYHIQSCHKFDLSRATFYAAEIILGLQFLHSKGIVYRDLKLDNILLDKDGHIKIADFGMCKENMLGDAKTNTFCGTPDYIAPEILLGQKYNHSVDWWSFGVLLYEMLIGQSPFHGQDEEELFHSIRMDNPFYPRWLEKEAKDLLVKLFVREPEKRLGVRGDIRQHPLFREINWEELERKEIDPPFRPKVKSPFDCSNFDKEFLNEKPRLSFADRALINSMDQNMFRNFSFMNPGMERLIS

Compound: CC1Cc2ccccc2N1C(=O)C1CCCN(C1)C(=O)CCl (mixture of isomers) [TRIM25 ligand 11 (diastereomer mixture)]
Experiment: probe-labelled cysteine peptide fold change vs DMSO (competition) (log2 fold change); higher = less target engagement (more negative = stronger competition)
Conditions: 10 µM; THP-1; incubation time: 4 h
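Also: competitive chemoproteomic profiling in live THP-1 cells with an iodoacetamide desthiobiotin (IA-DTB) probe, comparing probe-labelled peptide intensities in compound-treated cells against DMSO-treated controls.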

Point of comparison: “PRKAB1_Q9Y478_223_DTGISCDPALLPEPNHVMLNHLYALSIK (UniProt Q9Y478)”, “probe-labelled cysteine peptide fold change” value -0.132. Against it:
- PRMT7_Q9NVM4_639+640_RPGQSHAAVLWMEYHLTPECTLSTGLLEPADPEGGCCWNPHCK (UniProt Q9NVM4) — higher, -0.113
- PRKCB_P05771_586_LGCGPEGER (UniProt P05771) — higher, 0.0634
- PRKCA_P17252_406_VLALLDKPPFLTQLHSCFQTVDR (UniProt P17252) — higher, 0.26
- PRPF3_O43395_37_VLGFSEPTVVTAALNCVGK (UniProt O43395) — higher, 0.0367
- PRMT9_Q6P2P2_747_VFLDLSSLPCIPLSKPVELLR (UniProt Q6P2P2) — lower, -0.26
- PRKDC_P78527_4106_CLMDQATDPNILGR (UniProt P78527) — higher, -0.0751
- PRPF4B_Q13523_962_DLLADLIGCQR (UniProt Q13523) — higher, -0.0904
- PRIM1_P49642_170_GVHCWVCDESVR (UniProt P49642) — higher, 0.28
- PRKAR1B_P31321_18_GCELYVQLHGIQQVLK (UniProt P31321) — higher, 0.0752
- PRRC2C_Q9Y520_177_ETNDDNYGPGPSLRPPNVACWR (UniProt Q9Y520) — lower, -0.176
- PRPF6_O94906_430_AVECCPTSVELWLALAR (UniProt O94906) — higher, -0.0518
- PRKDC_P78527_3837_APPCEYK (UniProt P78527) — higher, 0.02
- PRPS2_P11908_165_NCIIVSPDAGGAK (UniProt P11908) — higher, 0.169
- PRKAA1_Q13131_141_LFQQILSGVDYCHR (UniProt Q13131) — higher, 0.0881
- PRKAA1_Q13131_238_ICDGIFYTPQYLNPSVISLLK (UniProt Q13131) — higher, 0.147
- PRKCD_Q05655_208_CTGTAANSR (UniProt Q05655) — higher, -0.0444
- PRKCD_Q05655_344_CNINNFIFHK (UniProt Q05655) — lower, -0.153
- PRMT1_Q99873_226_IHWWENVYGFDMSCIK (UniProt Q99873) — higher, 0.165
- PRPF8_Q6P2Q9_547_FGNAFHLCR (UniProt Q6P2Q9) — higher, 0.191
- PRPF19_Q9UMS4_230_QVASHVGLHSASIPGILALDLCPSDTNK (UniProt Q9UMS4) — lower, -0.148
- PRKDC_P78527_1499+1507_QCLPSLDLSCK (UniProt P78527) — higher, 0.0818
- PRPF6_O94906_739_CPHSTPLWLLLSR (UniProt O94906) — higher, 0.0353
- PRR14L_Q5THK1_1503_AQDPSSAGCDQIHGAFAK (UniProt Q5THK1) — lower, -0.17
- PRMT5_O14744_622_VWYEWAVTAPVCSAIHNPTGR (UniProt O14744) — higher, 0.323
- PRKCQ_Q04759_193_QCNAAIHK (UniProt Q04759) — higher, -0.0118
- PRKCSH_P14314_471_YEQGTGCWQGPNR (UniProt P14314) — higher, 0.137
- PRPF19_Q9UMS4_351+355_VTDETSGCSLTCAQFHPDGLIFGTGTMDSQIK (UniProt Q9UMS4) — higher, 0.0872
- PRKAR1A_P10644_362_VLGPCSDILKR (UniProt P10644) — lower, -0.183
- PRKDC_P78527_2093_EQRDPTVHDDVLELEMDELNRHECMAPLTALVK (UniProt P78527) — lower, -0.167
- PRKDC_P78527_1455_LAAVVSACK (UniProt P78527) — higher, 0.0308
- PRRC2C_Q9Y520_2340_STTTSDPPNICK (UniProt Q9Y520) — higher, -0.0359
- PRPF8_Q6P2Q9_435_EHCPAGQPVK (UniProt Q6P2Q9) — higher, 0.00907
- PRMT5_O14744_42_QGFDFLCMPVFHPR (UniProt O14744) — higher, -0.12
- PRMT5_O14744_622_KVWYEWAVTAPVCSAIHNPTGR (UniProt O14744) — higher, -0.00844
- PRKCD_Q05655_509_ASTFCGTPDYIAPEILQGLK (UniProt Q05655) — higher, 0.31
